Values from PubChem BioAssay AID1259308 (NCATS, 2017).
Shown is an unselected part of about 59,000 deposited reagents. In the full data, about 1,510 (2.6%) were called active. 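Calls use total luciferase alone and ignore viability, so some active siRNAs may act by altering cell number.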 Entries without a mark were called inactive. Reagents against one gene are numbered here. No sequences are given here.

Purpose: 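Knock-downs that increase output of a recombinant reporter protein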 (primary screen)
Cells: human HEK293 embryonic kidney cells stably expressing firefly luciferase (HEK-CMV-Luc2-Hygro)
Knock-down reagent: single siRNA against human genes, 0.8 pmol siRNA per well
Timing: 72 h
Read-out: 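Luciferase light (ONE-Glo) measured on one replicate plate set and viability (CellTiter-Glo) on the other, scaled to a negative control siRNA, with robust z-scores and luciferase per cell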
Reading the numbers: total luciferase, z-score and total luciferase, % of control: higher = more reporter protein produced; luciferase per cell, z-score: higher = more reporter output per viable cell; viable cells, % of control: higher = more viable cells
Active means: 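An siRNA counts as active if its total luciferase robust z-score exceeds 3; genes with two or more such siRNAs out of three were retested with fresh siRNAs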
Meaning of the calls: active = raised luciferase; inactive = no rise

gene,siRNA no.,"total luciferase, z-score","total luciferase, % of control","luciferase per cell, z-score","viable cells, % of control"
LILRA5,1,-0.697,68,0.44,67.7
LILRA5,2,-0.219,77.5,1.06,65.5
LILRA5,3,0.262,87.1,0.99,75
LMO7,1,3.74 (active),156,2.3,95.4
LMO7,2,2.02,122,2.1,78.5
LMO7,3,0.0137,82.2,-0.14,95.2
GJB1,1,4.22 (active),166,3.62,71.4
GJB1,2,-0.212,77.7,-0.525,99.7
GJB1,3,-1.09,60.3,0.538,58.5
OR8H1,1,-1.26,56.8,-1.39,91.6
OR8H1,2,-0.386,74.2,-0.282,89.3
OR8H1,3,-0.0903,80.1,0.25,83.8
VAMP2,1,-1.46,52.8,-1.06,77.9
VAMP2,2,1.63,114,2,75.4
VAMP2,3,0.114,84.2,0.3,86.9
TMEM39B,1,5.21 (active),185,5.45,49.4
TMEM39B,2,0.359,89,0.984,76.8
TMEM39B,3,-0.0104,81.7,0.408,82
TNFRSF13B,1,0.00432,82,0.187,87.2
TNFRSF13B,2,0.236,86.6,0.412,86.8
TNFRSF13B,3,0.0698,83.3,0.591,79.6
UMODL1,1,-1.33,55.5,-1.33,88.1
UMODL1,2,-1.1,59.9,-0.789,82.4
UMODL1,3,-1.25,57,-0.774,78.1
LCT,1,-0.375,74.4,0.281,77.2
LCT,2,-1.72,47.6,-1.93,88.4
LCT,3,0.0117,82.1,-0.0228,92.3
TUBB,1,1.79,117,1.82,81.3
TUBB,2,1.28,107,1.54,79.8
TUBB,3,-0.295,76,-0.0624,86.4
GP1BB,1,0.131,84.5,0.0618,92.9
GP1BB,2,-0.705,67.9,-0.371,83.6
GP1BB,3,2.06,123,1.51,92.3
TYRO3,1,-0.976,62.5,-0.825,86.7
TYRO3,2,0.901,99.8,0.903,87.9
TYRO3,3,0.466,91.2,0.162,97.6
POLR3F,1,1.5,112,0.772,102
POLR3F,2,-1.62,49.6,-1.07,73.6
POLR3F,3,0.464,91.1,0.673,85.3
PACRG-AS3,1,0.509,92,1.59,67.7
PACRG-AS3,2,2.34,128,2.23,79.8
PACRG-AS3,3,6.79 (active),217,3.65,92.7
SLC11A2,1,-0.5,71.9,-0.658,95.6
SLC11A2,2,0.303,87.9,-0.383,109
SLC11A2,3,-0.214,77.6,-0.442,97.5
CASK,1,0.199,85.8,0.355,87.3
CASK,2,-0.208,77.7,-0.578,101
CASK,3,0.905,99.9,0.661,93.8
H3Y2,1,1.28,107,2.55,61.4
H3Y2,2,-1.94,43.3,-1.36,69.2
H3Y2,3,0.168,85.2,-0.4,106
ST14,1,-0.354,74.8,-0.22,88.6
ST14,2,1.24,106,0.83,95.6
ST14,3,1.52,112,1.5,84.5
BTC,1,-0.265,76.6,-0.691,103
BTC,2,-0.644,69.1,-0.54,89
BTC,3,0.569,93.2,0.924,81.7

4 successive records from above, quoted:
gene,siRNA no.,"total luciferase, z-score","total luciferase, % of control","luciferase per cell, z-score","viable cells, % of control"
GJB1,3,-1.09,60.3,0.538,58.5
OR8H1,1,-1.26,56.8,-1.39,91.6
OR8H1,2,-0.386,74.2,-0.282,89.3
OR8H1,3,-0.0903,80.1,0.25,83.8
